From paper PMC12339401

By UniProt entry, the sequences of proteins in these tests, tags left out. Residues count along the entry.
UniProt O60238, residues 1-182: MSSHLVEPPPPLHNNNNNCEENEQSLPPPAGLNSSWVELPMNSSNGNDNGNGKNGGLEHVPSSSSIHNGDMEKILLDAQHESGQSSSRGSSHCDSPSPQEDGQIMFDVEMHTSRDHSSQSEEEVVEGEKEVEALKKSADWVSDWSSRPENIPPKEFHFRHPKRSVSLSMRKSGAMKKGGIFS

B1: PPTC7 (protein, UniProt Q8NI37 69-304)
chain: RSADVLGVADGVGGWRDYGVDPSQFSGTLMRTCERLVKEGRFVPSNPIGILTTSYCELLQNKVPLLGSSTACIVVLDRTSHRLHTANLGDSGFLVVRGGEVVHRSDEQQHYFNTPFQLSIAPPEAEGVVLSDSPDAADSTSFDVQLGDIILTATDGLFDNMPDYMILQELKKLKNSNYESIQQTARSIAEQAHELAYDPNYMSPFAQFACDNGLNVRGGKPDDITVLLSIVAEYTD
B2: WIPI2 (endogenous) (protein, UniProt Q9Y4P8 1-454)
chain: MNLASQSGEAGAGQLLFANFNQDNTEVKGASRAAGLGRRAVVWSLAVGSKSGYKFFSLSSVDKLEQIYECTDTEDVCIVERLFSSSLVAIVSLKAPRKLKVCHFKKGTEICNYSYSNTILAVKLNRQRLIVCLEESLYIHNIRDMKVLHTIRETPPNPAGLCALSINNDNCYLAYPGSATIGEVQVFDTINLRAANMIPAHDSPLAALAFDASGTKLATASEKGTVIRVFSIPEGQKLFEFRRGVKRCVSICSLAFSMDGMFLSASSNTETVHIFKLETVKEKPPEEPTTWTGYFGKVLMASTSYLPSQVTEMFNQGRAFATVRLPFCGHKNICSLATIQKIPRLLVGAADGYLYMYNLDPQEGGECALMKQHRLDGSLETTNEILDSASHDCPLVTQTYGAAAGKGTYVPSSPTRLAYTDDLGAVGGACLEDEASALRLDEDSEHPPMILRTD

Columns and labels:
[1] = target: NIX(1–182)-GST (human) (UniProt O60238); experiment: affinity purification with mass spectrometry; beads precoated with NIX(1–182)-GST or BNIP3(1–158)-GST, incubated overnight with HeLa cell lysate (20 mM Tris-HCl pH 7.4, 150 mM KCl, 2.5 mM MgCl2, 0.5% NP-40), mass spectrometry; only the target purified
[2] = target: BNIP3(1–158)-GST (human); experiment: as above

Binder | binding [1] | binding [2]
B1 | binds | binds
B2 | binds | 

Results are given in words; binding and its absence hold for the method and conditions named. Binding seen in cells or lysates may run through a third protein. These calls come from enrichment with a bait or labelling near it, and not all partners need be listed.
